Source: publication PMC8709471
No constants are given. Whether binding was seen depends on the method and setting. In cells and extracts the contact can be indirect. Some entries that bind do so weakly or less than the wild type.

Sequences of proteins named here, by UniProt entry; tags and fusion partners are left off.
UniProt P20963: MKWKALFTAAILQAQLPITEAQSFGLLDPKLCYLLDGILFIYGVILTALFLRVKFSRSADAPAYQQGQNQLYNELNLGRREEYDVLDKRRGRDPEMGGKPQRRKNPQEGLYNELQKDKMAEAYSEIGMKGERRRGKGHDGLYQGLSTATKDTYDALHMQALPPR
UniProt P29350: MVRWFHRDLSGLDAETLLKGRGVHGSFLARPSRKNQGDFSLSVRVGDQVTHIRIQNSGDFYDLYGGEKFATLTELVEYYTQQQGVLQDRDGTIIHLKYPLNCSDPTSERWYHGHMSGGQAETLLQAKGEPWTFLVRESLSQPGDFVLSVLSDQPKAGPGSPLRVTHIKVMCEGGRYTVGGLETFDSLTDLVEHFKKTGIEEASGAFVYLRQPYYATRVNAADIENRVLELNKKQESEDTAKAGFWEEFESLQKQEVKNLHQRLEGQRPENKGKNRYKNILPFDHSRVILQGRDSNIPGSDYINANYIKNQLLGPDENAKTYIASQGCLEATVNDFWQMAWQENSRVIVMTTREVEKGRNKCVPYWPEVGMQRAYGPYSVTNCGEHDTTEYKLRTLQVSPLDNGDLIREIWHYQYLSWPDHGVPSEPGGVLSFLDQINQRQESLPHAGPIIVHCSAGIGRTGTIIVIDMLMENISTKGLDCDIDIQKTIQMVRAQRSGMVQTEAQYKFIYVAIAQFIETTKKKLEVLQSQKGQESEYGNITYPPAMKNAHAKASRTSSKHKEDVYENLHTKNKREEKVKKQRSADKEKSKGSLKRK

Target: TCR-ζ chain (human (endogenous in Jurkat)) (UniProt P20963)
Experiment: co-IP; wild-type and DLG1 KO Jurkat cells activated with anti-CD3; lysis in 150 mM NaCl, 20 mM Tris pH 7.5, 1% Triton X-100; immunoprecipitation with agarose-conjugated anti-TCR-ζ overnight at 4 °C; immunoblot

Substance: SHP1 (from UniProt P29350 1-595) (enzyme)
- binding: binds
